Data set [1] deals with T1, PLZF (promyelocytic zinc finger protein, ZBTB16) (Homo sapiens) (UniProt Q05516).
T1 sequence (looked up, limits assumed): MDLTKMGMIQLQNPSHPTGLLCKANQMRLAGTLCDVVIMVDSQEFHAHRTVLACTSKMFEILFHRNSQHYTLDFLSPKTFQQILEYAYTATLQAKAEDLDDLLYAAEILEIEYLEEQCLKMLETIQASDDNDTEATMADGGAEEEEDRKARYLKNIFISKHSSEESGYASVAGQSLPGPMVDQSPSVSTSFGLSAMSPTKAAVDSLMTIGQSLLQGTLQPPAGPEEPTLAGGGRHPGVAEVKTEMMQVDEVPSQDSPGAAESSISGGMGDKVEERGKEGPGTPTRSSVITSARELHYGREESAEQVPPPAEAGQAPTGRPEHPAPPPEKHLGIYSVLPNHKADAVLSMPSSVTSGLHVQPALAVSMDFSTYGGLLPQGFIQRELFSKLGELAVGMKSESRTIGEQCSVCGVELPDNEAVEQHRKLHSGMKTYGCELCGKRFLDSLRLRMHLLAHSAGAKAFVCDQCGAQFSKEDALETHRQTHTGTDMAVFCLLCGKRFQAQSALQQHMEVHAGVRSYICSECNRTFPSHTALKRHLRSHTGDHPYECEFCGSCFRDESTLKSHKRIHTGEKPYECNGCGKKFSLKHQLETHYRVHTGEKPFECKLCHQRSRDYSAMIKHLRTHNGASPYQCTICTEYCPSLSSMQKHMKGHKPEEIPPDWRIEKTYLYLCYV
In words: EMSA. To be noted: protein in an extract. In general terms: Mobility shift assays separate free from complexed probe on a gel.

Data set [2] deals with T2, PLZF-myc (promyelocytic zinc finger protein, ZBTB16) (Homo sapiens) (UniProt Q05516).
T2 sequence (looked up, limits assumed): T1 sequence (looked up, limits assumed)
In words: activity in cells. As to conditions: luciferase, protein details: C-terminal myc, pCEP4 (GenBank GI:31543978), only the site is given.

For some assays here: At least one result comes from cells or an extract, where the contact may be indirect. For some assays here: No signal at the amounts used counts as a negative. Where a protein sequence is shown, tags need not be part of it.

As to “TTACATGTACTAGTGTTGTGG (double strand) [PI3K-p85alpha promoter PLZF element]”, in data set [1] (positive control, pattern identical to RER native oligo), the binding result is recorded as “binds”.
Take “CTTTACATCTGTTTTCACTGG (double strand) [RER promoter PLZF element, mutated]”: in data set [2] (site mutation in the 1100 bp promoter derepressed activity and abolished renin effect, variant of RER promoter PLZF element, native), the activity on this sequence is over 150%. Further, in data set [1] (mutated PLZF cis-element, variant of RER promoter PLZF element, native), the binding result is “no binding”.
“CTTAACTACAGTTTTCACTGG (double strand) [RER promoter PLZF element, native]”: in data set [2] (RER promoter repressed about 30% by renin with PLZF cotransfection, RER-dependent), the “activity on this sequence” value is given as “active”. For the same sequence, in data set [1] (super-shift with anti-PLZF antibody), the binding result is on record as “binds”.
